Results deposited as PubChem BioAssay AID1259254 (NCATS, 2017)

Assay: 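Finding genes that stop cells copying their DNA twice in one cycle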 (primary screen)
System: human HCT116 colorectal cancer cells
Knock-down reagent: single siRNA against human genes
Duration: 3 days
Detection: 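Nuclei stained with Hoechst and imaged; cell-cycle phase assigned by DNA content; G2 share scaled per plate, non-targeting siRNA 0%, GMNN siRNA 100%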
Scale: G2 robust z-score: higher = more G2 cells, more excess DNA replication
Active means: 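Active siRNAs have a G2 robust z of 5 or more median absolute deviations over the median, which in these data means about 38% or higher of GMNN control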
The deposit covers about 59,000 reagents; this is an unselected part. About 1,550 of all reagents (2.6%) were called active. 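G2 share is only a proxy for re-replication; each gene was hit by three separate siRNAs, and active genes were retested.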 The numbers tell different reagents against one gene apart. Further read-outs or replicates are left out here. Not given: the amount of reagent.

The opening 3 entries as a preview:
CD3G #1
- G2 robust z-score: -1.44
- call: inactive

CD3G #2
- G2 robust z-score: 1.86
- call: inactive

CD3G #3
- G2 robust z-score: -0.124
- call: inactive

Main list, from the start:
CD3G #1
- G2 robust z-score: -1.44
- call: inactive

CD3G #2
- G2 robust z-score: 1.86
- call: inactive

CD3G #3
- G2 robust z-score: -0.124
- call: inactive

ZNF428 #1
- G2 robust z-score: 0.422
- call: inactive

ZNF428 #2
- G2 robust z-score: 0.518
- call: inactive

ZNF428 #3
- G2 robust z-score: 9
- call: active

ACAA2 #1
- G2 robust z-score: -1.05
- call: inactive

ACAA2 #2
- G2 robust z-score: 2.25
- call: inactive

ACAA2 #3
- G2 robust z-score: -0.436
- call: inactive

CREBRF #1
- G2 robust z-score: 1.4
- call: inactive

CREBRF #2
- G2 robust z-score: -0.791
- call: inactive

CREBRF #3
- G2 robust z-score: -0.257
- call: inactive

ESR2 #1
- G2 robust z-score: -0.574
- call: inactive

ESR2 #2
- G2 robust z-score: -0.314
- call: inactive

ESR2 #3
- G2 robust z-score: 2.17
- call: inactive

PPP1R3A #1
- G2 robust z-score: -0.665
- call: inactive

PPP1R3A #2
- G2 robust z-score: -0.668
- call: inactive

PPP1R3A #3
- G2 robust z-score: 0.543
- call: inactive

MC4R #1
- G2 robust z-score: -0.0974
- call: inactive

MC4R #2
- G2 robust z-score: 0.34
- call: inactive

MC4R #3
- G2 robust z-score: 7.18
- call: active

UROD #1
- G2 robust z-score: 0.746
- call: inactive

UROD #2
- G2 robust z-score: -0.63
- call: inactive

UROD #3
- G2 robust z-score: 0.96
- call: inactive
